Data on two substances can be found in publication PMC6337645.

The chains behind the UniProt entries cited, without tags or fusion partners. Residues count along the entry.
UniProt Q8N163: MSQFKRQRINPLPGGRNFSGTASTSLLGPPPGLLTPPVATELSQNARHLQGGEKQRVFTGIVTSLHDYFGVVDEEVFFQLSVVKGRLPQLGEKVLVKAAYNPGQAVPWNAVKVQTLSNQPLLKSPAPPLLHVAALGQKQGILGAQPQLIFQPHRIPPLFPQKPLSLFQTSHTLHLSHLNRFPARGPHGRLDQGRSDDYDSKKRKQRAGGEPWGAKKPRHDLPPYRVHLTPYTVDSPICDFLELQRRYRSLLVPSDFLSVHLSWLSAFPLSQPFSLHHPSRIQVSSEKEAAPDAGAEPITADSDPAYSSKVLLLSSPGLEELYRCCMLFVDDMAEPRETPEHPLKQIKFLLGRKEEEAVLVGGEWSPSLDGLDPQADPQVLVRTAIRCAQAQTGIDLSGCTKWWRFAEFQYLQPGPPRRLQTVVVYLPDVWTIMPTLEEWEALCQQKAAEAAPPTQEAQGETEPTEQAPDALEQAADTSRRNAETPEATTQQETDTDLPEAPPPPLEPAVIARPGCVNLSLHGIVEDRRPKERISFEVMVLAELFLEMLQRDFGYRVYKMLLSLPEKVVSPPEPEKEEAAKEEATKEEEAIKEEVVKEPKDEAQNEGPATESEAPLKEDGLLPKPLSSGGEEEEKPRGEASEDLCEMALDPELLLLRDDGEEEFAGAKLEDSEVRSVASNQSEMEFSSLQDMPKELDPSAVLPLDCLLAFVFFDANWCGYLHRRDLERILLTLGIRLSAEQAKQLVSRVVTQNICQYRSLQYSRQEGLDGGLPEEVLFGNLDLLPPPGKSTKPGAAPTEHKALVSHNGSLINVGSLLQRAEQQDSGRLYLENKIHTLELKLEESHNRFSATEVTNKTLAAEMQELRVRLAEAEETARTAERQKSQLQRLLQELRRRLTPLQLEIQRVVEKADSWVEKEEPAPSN
UniProt O15392: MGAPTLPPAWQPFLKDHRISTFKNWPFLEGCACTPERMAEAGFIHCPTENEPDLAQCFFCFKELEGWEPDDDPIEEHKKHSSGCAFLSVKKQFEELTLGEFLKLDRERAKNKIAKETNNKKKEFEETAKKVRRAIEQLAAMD
UniProt P10809, residues 27-573: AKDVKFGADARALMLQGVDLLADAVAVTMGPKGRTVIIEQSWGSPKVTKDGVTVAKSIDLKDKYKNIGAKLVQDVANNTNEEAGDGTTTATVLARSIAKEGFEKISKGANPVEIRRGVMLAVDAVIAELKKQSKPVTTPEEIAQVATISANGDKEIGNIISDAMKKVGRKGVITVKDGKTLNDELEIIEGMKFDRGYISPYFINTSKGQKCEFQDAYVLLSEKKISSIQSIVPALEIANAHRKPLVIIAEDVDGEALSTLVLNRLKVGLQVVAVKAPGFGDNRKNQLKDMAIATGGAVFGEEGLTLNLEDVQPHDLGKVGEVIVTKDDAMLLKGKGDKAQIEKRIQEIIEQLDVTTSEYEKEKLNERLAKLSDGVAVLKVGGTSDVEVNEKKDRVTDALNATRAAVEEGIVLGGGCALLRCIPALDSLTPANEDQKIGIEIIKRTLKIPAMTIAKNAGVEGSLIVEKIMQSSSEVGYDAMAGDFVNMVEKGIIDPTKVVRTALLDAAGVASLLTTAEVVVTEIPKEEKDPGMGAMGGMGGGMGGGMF

Test [1] has as its target Cell cycle and apoptosis regulator 2 (CCAR2) (human (endogenous in SH-SY5Y and HEK293)) (UniProt Q8N163). The experiment in a line: co-IP; cytosolic fraction isolated from HEK293 cells, anti-CCAR2 or anti-survivin antibody, western blotting.
Test [2] shares this target. The experiment in a line: co-IP; mitochondrial fraction isolated from HEK293 cells, anti-CCAR2 or anti-survivin antibody, western blotting. For orientation: In western blotting, separated proteins are transferred to a membrane and probed.
Test [3] shares this target. The experiment in a line: co-IP; whole cell lysates of SH-SY5Y cells in NETN lysis buffer (100 mM NaCl, 0.5% Nonidet P-40), anti-CCAR2 or anti-survivin antibody with Protein A sepharose, western blotting; also in cells transfected with universal or Hsp60 siRNA.

These are yes or no findings as the source states them, for the method shown. In cells and extracts the contact can be indirect. Some entries that bind do so weakly or less than the wild type.

Regarding survivin (from UniProt O15392 1-142), the binding result in test [1] is on record as “no binding (condition: in the cytosolic fraction)”; in test [2], “binds”; in test [3] it was “binds”.
As for “Heat shock protein 60 (Hsp60) (from UniProt P10809-1 27-573)”, the binding entry in test [3] is “binds”.
